Data from article PMC9940370.

By UniProt entry, the sequences of proteins in these tests, tags left out.
UniProt P07355: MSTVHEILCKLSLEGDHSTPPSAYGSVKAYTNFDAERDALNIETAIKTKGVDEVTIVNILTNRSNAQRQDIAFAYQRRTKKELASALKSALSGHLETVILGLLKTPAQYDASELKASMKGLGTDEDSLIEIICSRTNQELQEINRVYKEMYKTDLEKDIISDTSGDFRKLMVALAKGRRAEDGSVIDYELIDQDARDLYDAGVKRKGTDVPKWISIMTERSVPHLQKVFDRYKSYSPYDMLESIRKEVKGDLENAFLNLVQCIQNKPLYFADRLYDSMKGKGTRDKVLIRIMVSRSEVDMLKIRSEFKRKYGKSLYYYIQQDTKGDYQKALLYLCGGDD

Target: T1, Flag-tagged AQP1 (Flag-AQP1) (human) (UniProt P29972)
T1 sequence: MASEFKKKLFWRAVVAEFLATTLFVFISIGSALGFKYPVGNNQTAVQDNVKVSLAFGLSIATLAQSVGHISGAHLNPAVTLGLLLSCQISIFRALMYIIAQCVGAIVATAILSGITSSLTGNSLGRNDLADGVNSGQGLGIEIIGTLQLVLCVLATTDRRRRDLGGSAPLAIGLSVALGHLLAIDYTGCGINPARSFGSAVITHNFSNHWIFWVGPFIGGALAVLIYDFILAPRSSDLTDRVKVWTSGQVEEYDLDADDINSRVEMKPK
Test: affinity purification with mass spectrometry; extracts of MDA-MB-231 cells stably transfected with Flag-vector or Flag-AQP1, anti-Flag affinity beads, eluted with Flag peptides, SDS-PAGE, silver stain, LC-MS/MS

binding: binds
Substance: ANXA2 (endogenous, MDA-MB-231 cells) (from UniProt P07355 1-339)

No constants are given. Whether binding was seen depends on the method and setting. Binding seen in cells or lysates may run through a third protein. Here binding means that the protein was enriched with, or labelled near, the bait; the list need not be complete. Where a sequence is shown, tags or fusion partners need not be part of it.
